{
  "source": "PubChem BioAssay AID276",
  "about": "(DTP/NCI, 2004)",
  "system": "B6C3F1 mice, Lewis lung carcinoma iv, survival T/C",
  "test": "NCI In Vivo Anticancer Drug Screen. Data for tumor model Lewis Lung Carcinoma (intravenous) in B6C3F1 mice",
  "settings": "T/C endpoint: median survival time, schedule: Q01DX009 (ip), higher T/C = longer survival",
  "protocol": "The antitumor activity of compounds was measured in mice bearing transplantable tumors. Survival or tumor size were measured and the results are expressed as the measurement made in the treated group (T) divided by the measurement made in the vehicle treated control group (C). The tumor model used in this assay is Lewis Lung Carcinoma (intravenous) in B6C3F1 mice",
  "note": "The list does not hold the whole screen: it covers a few groups of compounds. Other doses and runs of a compound may be missing. T/C is the treated group as % of the vehicle group. For survival time, the PubChem record calls one and a half times the control and up active, and a quarter to a half above the control has no call in these data; cut-offs in other NCI protocols can differ. Schedule codes are those of the source, taken here to give the interval after Q, in days (D) or hours (H), and the number of doses after X. Some T/C values are marked as having no survivor count here; that says nothing about deaths at the dose. Some entries hold several experiments; the results are listed from low to high.",
  "data": [
    {"compound": "CC1=C[C@H]2O[C@@H]3C[C@H]4OC(=O)/C=C\\C=C\\C(C(C)O)OCC[C@@H](C)[C@H](O)C(=O)OC[C@@]2(CC1)[C@]4(C)[C@]31CO1", "note": "(some centres not stated)", "values": [
      {"measurement": "T/C", "setting": "dose: 0.03 mg/kg/injection, vehicle: Klucel (hydroxypropylcellulose) (HPC)", "value": "92 % of control [survivor count not shown]"},
      {"measurement": "T/C", "setting": "dose: 0.06 mg/kg/injection, vehicle: Klucel (hydroxypropylcellulose) (HPC)", "value": "108 % of control [survivor count not shown]"},
      {"measurement": "T/C", "setting": "dose: 0.13 mg/kg/injection, vehicle: Klucel (hydroxypropylcellulose) (HPC)", "value": "103 % of control [survivor count not shown]"}
    ]},
    {"compound": "CC(=O)OC[C@]12CC(=O)C(C)=C[C@H]1O[C@@H]1C(=O)[C@@H](OC(C)=O)[C@@]2(C)[C@@]12CO2", "values": [
      {"measurement": "T/C", "setting": "dose: 0.12 mg/kg/injection, vehicle: water", "value": "106 % of control [survivor count not shown]"},
      {"measurement": "T/C", "setting": "dose: 0.25 mg/kg/injection, vehicle: water", "value": "95 % of control [survivor count not shown]"},
      {"measurement": "T/C", "setting": "dose: 0.5 mg/kg/injection, vehicle: water", "value": "106 % of control [survivor count not shown]"},
      {"measurement": "T/C", "setting": "dose: 1.0 mg/kg/injection, vehicle: water", "value": "103 % of control [survivor count not shown]"},
      {"measurement": "T/C", "setting": "dose: 2.0 mg/kg/injection, vehicle: water", "value": "106 % of control [survivor count not shown]"}
    ]},
    {"compound": "CC1=C[C@H]2O[C@@H]3[C@H](O)[C@@H](O)[C@](C)([C@@]2(CO)CC1)[C@@]31CO1", "values": [
      {"measurement": "T/C", "setting": "dose: 0.25 mg/kg/injection, vehicle: saline", "value": "104 % of control [survivor count not shown]"},
      {"measurement": "T/C", "setting": "dose: 0.5 mg/kg/injection, vehicle: saline", "value": "105 % of control [survivor count not shown]"},
      {"measurement": "T/C", "setting": "dose: 1.0 mg/kg/injection, vehicle: saline", "value": "100 % of control [survivor count not shown]"},
      {"measurement": "T/C", "setting": "dose: 2.0 mg/kg/injection, vehicle: saline", "value": "109 % of control [survivor count not shown]"},
      {"measurement": "T/C", "setting": "dose: 4.0 mg/kg/injection, vehicle: saline", "value": "115 % of control [survivor count not shown]"}
    ]},
    {"compound": "CC(=O)OCC12CCC(C)=CC1OC1C(O)C(OC(C)=O)C2(C)C12CO2", "note": "(configuration not stated)", "values": [
      {"measurement": "T/C", "setting": "dose: 1.0 mg/kg/injection, vehicle: Klucel (hydroxypropylcellulose) (HPC)", "value": "104 % of control [survivor count not shown]"},
      {"measurement": "T/C", "setting": "dose: 1.0 mg/kg/injection, vehicle: suspension in saline", "value": "99 % of control [survivor count not shown]"},
      {"measurement": "T/C", "setting": "dose: 2.0 mg/kg/injection, vehicle: Klucel (hydroxypropylcellulose) (HPC)", "value": "110 [survivor count not shown] and 114 % of control [survivor count not shown]"},
      {"measurement": "T/C", "setting": "dose: 2.0 mg/kg/injection, vehicle: suspension in saline", "value": "110 % of control [survivor count not shown]"}
    ]}
  ]
}
